Source: article PMC7005177
These are yes or no findings as the source states them, for the method shown. Binding seen in cells or lysates may run through a third protein. Some results given as binding are weak or reduced against the parent protein; the word gives no strength. Where a sequence is shown, tags or fusion partners need not be part of it.

Chains of the proteins cited; added tags and fusions are not shown.
UniProt Q92608: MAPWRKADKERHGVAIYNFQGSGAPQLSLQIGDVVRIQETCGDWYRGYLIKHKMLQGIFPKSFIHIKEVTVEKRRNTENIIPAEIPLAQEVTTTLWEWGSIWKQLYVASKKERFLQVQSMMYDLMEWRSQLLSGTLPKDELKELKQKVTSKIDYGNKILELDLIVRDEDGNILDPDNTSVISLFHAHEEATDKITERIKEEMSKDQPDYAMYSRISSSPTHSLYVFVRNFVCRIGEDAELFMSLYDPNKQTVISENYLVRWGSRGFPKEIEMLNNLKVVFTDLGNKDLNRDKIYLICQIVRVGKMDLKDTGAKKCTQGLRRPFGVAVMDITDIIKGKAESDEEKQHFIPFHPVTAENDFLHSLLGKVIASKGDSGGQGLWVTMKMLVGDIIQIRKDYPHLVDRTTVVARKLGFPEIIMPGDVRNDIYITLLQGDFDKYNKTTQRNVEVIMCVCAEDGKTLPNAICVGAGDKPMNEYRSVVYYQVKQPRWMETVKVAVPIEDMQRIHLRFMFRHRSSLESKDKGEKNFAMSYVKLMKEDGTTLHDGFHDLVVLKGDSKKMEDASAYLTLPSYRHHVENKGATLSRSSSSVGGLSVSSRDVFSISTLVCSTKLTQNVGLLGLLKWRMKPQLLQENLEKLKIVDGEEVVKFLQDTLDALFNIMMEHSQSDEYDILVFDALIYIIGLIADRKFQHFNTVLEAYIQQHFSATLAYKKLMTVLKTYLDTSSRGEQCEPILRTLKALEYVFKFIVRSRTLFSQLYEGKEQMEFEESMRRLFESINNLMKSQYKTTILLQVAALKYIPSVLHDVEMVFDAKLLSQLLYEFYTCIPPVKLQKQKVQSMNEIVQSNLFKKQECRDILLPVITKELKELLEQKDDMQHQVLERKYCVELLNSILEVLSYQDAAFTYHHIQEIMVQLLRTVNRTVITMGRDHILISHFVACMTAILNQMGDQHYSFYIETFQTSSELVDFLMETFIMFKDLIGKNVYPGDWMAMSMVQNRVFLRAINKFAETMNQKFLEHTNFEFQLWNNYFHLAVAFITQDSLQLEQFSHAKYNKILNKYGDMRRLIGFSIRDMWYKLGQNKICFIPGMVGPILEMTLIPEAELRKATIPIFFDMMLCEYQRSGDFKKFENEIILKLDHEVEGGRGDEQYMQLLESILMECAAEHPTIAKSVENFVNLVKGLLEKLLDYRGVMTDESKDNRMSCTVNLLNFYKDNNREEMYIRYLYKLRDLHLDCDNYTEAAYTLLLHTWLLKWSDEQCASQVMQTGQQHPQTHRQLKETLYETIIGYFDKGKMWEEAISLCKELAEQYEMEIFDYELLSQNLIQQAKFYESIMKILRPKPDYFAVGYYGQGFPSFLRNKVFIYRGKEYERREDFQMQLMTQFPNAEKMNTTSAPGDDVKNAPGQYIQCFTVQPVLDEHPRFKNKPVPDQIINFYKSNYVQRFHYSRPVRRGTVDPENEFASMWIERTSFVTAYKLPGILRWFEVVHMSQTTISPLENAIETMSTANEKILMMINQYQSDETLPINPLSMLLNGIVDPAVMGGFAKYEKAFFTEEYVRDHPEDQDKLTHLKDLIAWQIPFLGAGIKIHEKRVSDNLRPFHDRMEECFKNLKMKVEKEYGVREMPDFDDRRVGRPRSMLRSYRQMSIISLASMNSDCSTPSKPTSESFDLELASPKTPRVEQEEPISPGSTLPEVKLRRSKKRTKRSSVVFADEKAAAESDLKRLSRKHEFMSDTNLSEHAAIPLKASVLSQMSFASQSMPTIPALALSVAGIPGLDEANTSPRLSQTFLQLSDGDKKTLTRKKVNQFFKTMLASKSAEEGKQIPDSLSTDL

Molecular target: HA-DOCK2 (UniProt Q92608)
Assay: co-IP; HEK293T cell lysates ~48 h post-transfection with HA-DOCK2 and Flag-RASSF2; HA-immunoprecipitation, then immunoblotting

binding: binds
B1: Flag-RASSF2 (protein, UniProt P50749 1-326)
chain: MDYSHQTSLVPCGQDKYISKNELLLHLKTYNLYYEGQNLQLRHREEEDEFIVEGLLNISWGLRRPIRLQMQDDNERIRPPPSSSSWHSGCNLGAQGTTLKPLTVPKVQISEVDAPPEGDQMPSSTDSRGLKPLQEDTPQLMRTRSDVGVRRRGNVRTPSDQRRIRRHRFSINGHFYNHKTSVFTPAYGSVTNVRINSTMTTPQVLKLLLNKFKIENSAEEFALYVVHTSGEKQKLKATDYPLIARILQGPCEQISKVFLMEKDQVEEVTYDVAQYIKFEMPVLKSFIQKLQEEEDREVKKLMRKYTVLRLMIRQRLEEIAETPATI
